Measurements taken from PubChem BioAssay AID651768 (National Center for Advancing Translational Sciences (NCATS), 2012).
The campaign covered roughly 360,000 compounds. About 1,700 (0.47%) were called active. This list was built around the results that the source calls inconclusive (neither active nor inactive); the mix of calls is not that of the screen. The call rests on the fitted dose curve; in most records, active means well fitted inhibition curve with a large enough effect; inconclusive means small, poorly fitted or top-dose-only effect; inactive means no such curve, though single readings can be large or run the other way. A potency beside an inconclusive call is a rough fit, not a confirmed value.

By UniProt entry, the sequences of proteins in these tests, tags left out.
UniProt Q14191, whole entry, looked up: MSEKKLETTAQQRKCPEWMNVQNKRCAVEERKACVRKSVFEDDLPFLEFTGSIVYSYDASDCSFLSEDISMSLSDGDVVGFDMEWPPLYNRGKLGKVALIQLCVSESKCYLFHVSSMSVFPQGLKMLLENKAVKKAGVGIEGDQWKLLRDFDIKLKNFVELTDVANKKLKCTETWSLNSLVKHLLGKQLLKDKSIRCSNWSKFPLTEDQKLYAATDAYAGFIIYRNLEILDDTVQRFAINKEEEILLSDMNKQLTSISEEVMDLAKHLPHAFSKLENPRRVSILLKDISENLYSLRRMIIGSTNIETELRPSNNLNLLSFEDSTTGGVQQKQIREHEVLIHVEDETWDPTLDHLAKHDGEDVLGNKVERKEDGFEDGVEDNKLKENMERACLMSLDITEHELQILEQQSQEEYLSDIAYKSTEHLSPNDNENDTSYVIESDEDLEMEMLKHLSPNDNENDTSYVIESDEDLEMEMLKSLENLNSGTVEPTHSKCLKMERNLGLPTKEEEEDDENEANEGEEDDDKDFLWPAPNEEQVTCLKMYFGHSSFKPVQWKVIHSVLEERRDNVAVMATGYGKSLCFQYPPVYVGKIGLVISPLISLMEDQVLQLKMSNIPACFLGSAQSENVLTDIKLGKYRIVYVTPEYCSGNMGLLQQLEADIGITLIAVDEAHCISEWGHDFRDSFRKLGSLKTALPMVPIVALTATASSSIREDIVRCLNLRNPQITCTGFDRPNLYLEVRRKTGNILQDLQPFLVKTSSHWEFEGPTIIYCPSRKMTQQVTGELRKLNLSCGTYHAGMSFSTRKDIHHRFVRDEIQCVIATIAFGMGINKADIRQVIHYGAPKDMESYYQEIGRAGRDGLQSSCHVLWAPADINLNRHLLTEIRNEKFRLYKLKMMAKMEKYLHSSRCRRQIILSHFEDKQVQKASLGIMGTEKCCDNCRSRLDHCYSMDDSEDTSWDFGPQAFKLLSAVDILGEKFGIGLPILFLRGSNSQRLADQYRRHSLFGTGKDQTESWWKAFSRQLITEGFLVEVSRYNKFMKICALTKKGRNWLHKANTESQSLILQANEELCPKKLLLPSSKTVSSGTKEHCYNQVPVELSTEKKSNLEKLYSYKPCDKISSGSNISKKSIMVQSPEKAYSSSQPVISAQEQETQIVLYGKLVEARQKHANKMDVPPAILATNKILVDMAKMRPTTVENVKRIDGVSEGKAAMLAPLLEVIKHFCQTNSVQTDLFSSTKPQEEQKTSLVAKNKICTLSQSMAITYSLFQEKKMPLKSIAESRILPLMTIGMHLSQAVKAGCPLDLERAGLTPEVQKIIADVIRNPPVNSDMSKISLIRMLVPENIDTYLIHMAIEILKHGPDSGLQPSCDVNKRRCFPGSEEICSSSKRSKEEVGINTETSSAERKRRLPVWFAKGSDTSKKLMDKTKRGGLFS

Target: Bifunctional 3'-5' exonuclease/ATP-dependent helicase WRN (Homo sapiens) (UniProt Q14191)
Experiment: qHTS for Inhibitors of WRN Helicase; further: nearly all actives have a fitted effect of over 55% in size
Settings: WRN helicase unwinding, fluorescent forked duplex, kinetic; activity change, negative = inhibition: at 114 µM (top of the series) unless noted
How it was run: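 Primary qHTS, 1536-well format. 20 nM WRN + compound, 15 min RT; start with 100 nM forked fluorophore/quencher duplex, 2 mM ATP (final); kinetic read ex 525/em 598 nm.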
On the % scale 0 is the no-effect control and ±100 the full control effect; potency means the concentration at half of the fitted maximal effect.

Structure (SMILES)	activity change, negative = inhibition	Potency
CCOc1ccc(C(=O)NC(=S)Nc2ccccn2)cc1[N+](=O)[O-]	inactive: -5.27%	–
C#CCOCCOCCOCCNc1nc(N2CCN(C(=O)C([C@@H](C)O)n3cc([C@@H](N)CCCCN)nn3)CC2)nc(N2CCN(C(=O)[C@H](CCCCN)n3cc(CN)nn3)CC2)n1 (stereo not given in full)	–	inconclusive: 28.2 µM [inhibitor, partial curve]
Cc1ccc(C(C2C(=O)CC(C)(C)CC2=O)C2C(=O)CC(C)(C)CC2=O)s1	–	inconclusive: 50.1 µM [inhibitor, partial curve]
CCCCOc1ccc(Cl)cc1CSc1nncn1N	inactive: 3.38%	–
COc1ccccc1C1NC(=O)CCC1[N+](=O)[O-] (stereo not given)	–	inconclusive: 89.1 µM [inhibitor, single point]
O=C1CC(=O)N(Cc2ccco2)C(=O)N1	–	active: 25.1 µM
CCc1cc(=O)oc2cc3occ(-c4ccc(OC)c(F)c4)c3cc12	–	inconclusive: 28.2 µM [inhibitor, single point]
COC(=O)N/N=C/c1cc(OC)c(O)c([N+](=O)[O-])c1	–	inconclusive: 20 µM [inhibitor, single point]
CCOc1ccc(/C=C/C(=O)c2cc(Br)ccc(=O)c2O)cc1	–	inconclusive: 17.8 µM [inhibitor, full curve]
O=C(NNC(=O)c1ccncc1)Nc1ccc([N+](=O)[O-])cc1	inactive: -10.5%	–
Cc1ccc(S(=O)(=O)N/N=C/c2ccc(OS(=O)(=O)c3ccc(C)c([N+](=O)[O-])c3)cc2)cc1	–	inconclusive: 89.1 µM [inhibitor, single point]
Cc1c(Cl)cnc(NC(=O)COC(=O)/C=C/c2ccco2)c1Cl	–	inconclusive: 50.1 µM [inhibitor, partial curve]
Cc1ccc2[nH]c(C(=O)NN=C3CCCCC3)c(-c3ccccc3)c2c1	–	inconclusive: 39.8 µM [inhibitor, single point]
Cc1ccc(C(=O)OCc2cn(-c3ccccc3)nn2)cc1	–	inconclusive: 31.6 µM [inhibitor, single point]
COCCN(C(=O)COC(=O)Cc1coc2cc(C)ccc12)c1c(N)n(Cc2ccccc2)c(=O)[nH]c1=O	–	inconclusive: 89.1 µM [inhibitor, partial curve]
Cc1cc(C)c2nc(-c3ccccn3)cc(C(=O)NCc3ccco3)c2c1	–	inconclusive: 79.4 µM [inhibitor, single point]
CNC1=C(N(C(C)=O)c2ccc(Br)cc2)C(=O)c2ccccc2C1=O	inactive: -20.3%	–
CCc1ccc(/C=C2/SC(=S)N(CCC(=O)Nc3cccnc3)C2=O)cc1	inactive: 3.85%	–
O=C(O)c1ccccc1NS(=O)(=O)c1cccc(-n2sc3ccccc3c2=O)c1	–	active: 11.2 µM
COc1ccc(-c2csc(C(C#N)=C(O)CSc3nccn3C)n2)cc1OC	inconclusive: -37.2% [inhibitor]	–
O=C(O)c1cc(S(=O)(=O)Nc2ccc3oc(=O)sc3c2)ccc1O	–	active: 28.2 µM
O=c1oc2ccc(Cl)cc2nc1/C=C(\O)c1ccco1	–	inconclusive: 22.4 µM [inhibitor, single point]
C=C(C)C(=O)Nc1cccc(C2=NOC3(C2)C[C@@H](C(N)=O)N(C(=O)/C(C)=C/C)C3)c1 (stereo not given in full)	–	inconclusive: 56.2 µM [inhibitor, partial curve]
CCSC1=NCCN1C(=O)C(C)(C)Oc1ccc(Cl)cc1	–	inconclusive: 89.1 µM [inhibitor, single point]

Structure (SMILES)	activity change, negative = inhibition	Potency
CN(C)c1ccc(/C=C/C(=O)c2cc(Cl)ccc2O)cc1	–	active: 50.1 µM
CCc1nc2ccc(C(=O)Nc3ccc(NC(C)=O)cc3)cc2nc1CC	inactive: -2.27%	–
Cc1cccc2c(=O)c(C(=O)NCCc3ccccc3)c[nH]c12	–	inconclusive: 79.4 µM [inhibitor, single point]
Cc1ccc(C)c(NC(=O)CN(C)C(=O)c2cccc(-n3cccc3)c2)c1	–	active: 50.1 µM
O=C1c2cccc3cccc(c23)C(=O)C1(O)O	–	active: 20 µM
CCN1/C(=C/c2ccc3cc(C)cc(C)c3[n+]2CC)Sc2cc(C)ccc21	–	active: 17.8 µM
Cc1cc(C)cc(-n2c3ccc(NC(=O)Cc4cccc5ccccc45)cc3c(=O)n2C)c1	inactive: 0.674%	–
O=C(NCc1ccco1)c1c2c(nc3ccccc13)CCC2	–	active: 44.7 µM
O=C1C=C(O)c2c(O)cc(O)c(O)c2C1=O	–	inconclusive: 7.94 µM [inhibitor, full curve]
Cc1ccc2c(c1)nnn2C1CCN(S(=O)(=O)c2ccc(C(=O)NC3CCCC3)cc2)CC1	inactive: -0.793%	–
COc1ccc(Cl)cc1NC(=O)C(C)OC(=O)c1ccc(NS(=O)(=O)c2ccc3[nH]c(=O)[nH]c3c2)cc1 (stereo not given)	–	inconclusive: 12.6 µM [inhibitor, single point]
COc1ccc(NC(=O)CSc2nc(O)cc(=O)[nH]2)c(OC)c1	inactive: -1.65%	–
Cc1ccc(C)c(NC(=O)CN(C)C(=O)c2cccc(Oc3ccccc3)c2)c1	inactive: -8.23%	–
CC(=O)OCCCNc1cc(SCc2ccco2)c2nonc2c1[N+](=O)[O-]	–	active: 22.4 µM
Cc1ccc(NC(=O)c2cc(N3C(=O)C=CC3=O)ccc2N2CCOCC2)cc1	–	active: 35.5 µM
CCc1ccc2nc(NC(=O)c3ccc4c(=O)[nH]c(CN5CCOCC5)nc4c3)sc2c1	–	inconclusive: 8.44 µM [inhibitor, partial curve]
Cc1nnc2ccc(-c3cccc(NS(=O)(=O)c4cc(F)ccc4F)c3)nn12	–	inconclusive: 31.6 µM [inhibitor, full curve, poor fit]
COc1ccc(S(=O)(=O)Nc2cc(Sc3ncn[nH]3)c(O)c3ccccc23)cc1	–	active: 9.47 µM
Cc1ccc(C(=O)N/N=C/c2ccc(-c3ccccc3[N+](=O)[O-])o2)cn1	inactive: -28.3%	–
NC(=NCc1ccc2c(c1)OCO2)NC(=O)c1ccccc1	–	inconclusive: 56.2 µM [inhibitor, single point]
COc1ccc(C2NC(=S)N3C(c4ccc(OC)cc4)NC(=S)N23)cc1 (stereo not given)	–	active: 89.1 µM
N=C1/C(=C\c2ccc(Br)o2)C(=O)N=C2SC(CC(=O)N3CCCCC3)=NN12	–	inconclusive: 44.7 µM [inhibitor, partial curve]
Cc1ccc2nc(-c3ccc(NC(=O)CCN4C(=O)c5ccccc5C4=O)cc3)sc2c1	–	inconclusive: 28.2 µM [inhibitor, single point]
CCOc1ccc(-n2c(SCC(N)=O)nnc2-c2ccco2)cc1	–	inconclusive: 89.1 µM [inhibitor, single point]

Structure (SMILES)	activity change, negative = inhibition	Potency
COc1cc(NC(=S)NC(=O)CCc2ccccc2)cc(OC)c1	–	inconclusive: 79.4 µM [inhibitor, single point]
[O-]/[N+](=C\c1ccncc1)c1ccc(Br)cc1	–	inconclusive: 63.1 µM [inhibitor, partial curve, poor fit]
COc1ccc(CC(=O)Nc2nc(-c3cccnc3)cs2)cc1	–	inconclusive: 10 µM [inhibitor, partial curve]
Cc1ccc(/C=N/NC(=O)CSc2nc3ccccc3o2)cc1	–	inconclusive: 50.1 µM [inhibitor, partial curve]
CCOC(=O)CSc1nc2ccccc2c(=O)n1CC1CCCC1	–	inconclusive: 89.1 µM [inhibitor, single point]
COc1ccc(C(=O)CCN2CCCC(C)C2)cc1 (stereo not given)	–	inconclusive: 56.2 µM [inhibitor, partial curve]
CCN(CC(=O)Nc1c(F)cccc1F)C(=O)/C=C/c1ccc2ccccc2n1	–	active: 22.4 µM
Cc1cc(/C=C\c2nc(O)c([N+](=O)[O-])c(=O)[nH]2)c(C)n1-c1ccccc1	–	inconclusive: 56.2 µM [inhibitor, partial curve]
Cc1sc2ncnc(SCC(=O)Nc3ncccc3O)c2c1C	–	inconclusive: 79.4 µM [inhibitor, partial curve]
CC(=O)Nc1ccc(S(=O)(=O)NCCC(=O)OCC(=O)N2CCN(C(=O)c3ccco3)CC2)cc1	–	inconclusive: 20 µM [inhibitor, full curve]
CCOC(=O)[C@@H]1[C@H]2COc3ccccc3[C@H]2N2C(=O)N(c3cccc(F)c3)C(=O)[C@]12C	inactive: -2.5%	–
N#CCCn1cc(C(=O)NCc2ccccc2)c(-c2cccs2)n1	inactive: 6.98% [at 57.1 µM]	–
Cc1ccc(Cn2c(/C=C/c3ccco3)nc3ccccc32)cc1	inactive: -11.7%	–
COc1ccc2cc3c(N)nn(C(=O)c4cccc([N+](=O)[O-])c4)c3nc2c1	–	inconclusive: 50.1 µM [inhibitor, partial curve]
O=c1ccsn1Cc1ccccc1	–	active: 50.1 µM
ON=C(CCc1ccccc1)CCc1ccccc1	–	inconclusive: 11.2 µM [inhibitor, full curve, poor fit]
O=C(CCCc1ccccc1)Nc1ccccc1[N+](=O)[O-]	–	inconclusive: 89.1 µM [inhibitor, single point]
CN1/C(=C\C(=O)CSc2nnc(NCc3ccccc3)s2)C(C)(C)c2ccccc21	–	inconclusive: 35.5 µM [inhibitor, single point]
CCOc1ccc(C(=O)c2cc([N+](=O)[O-])ccc2N2CCOCC2)cc1	–	inconclusive: 39.8 µM [inhibitor, single point]
S=c1[nH]nc(-c2cc(-c3ccco3)[nH]n2)n1-c1ccccc1Cl	–	active: 50.1 µM
CCN(CC(=O)Nc1ccc(S(=O)(=O)N2CCCC2)cc1)CC(=O)Nc1cccc(OC)c1	–	inconclusive: 31.6 µM [inhibitor, full curve]
CC(C)(c1cc(Br)c(O)c(Br)c1)c1cc(Br)c(O)c(Br)c1	–	inconclusive: 50.1 µM [inhibitor, partial curve]
